From patent CN112062851A
No constants are given. Whether binding was seen depends on the method and setting. Some entries that bind do so weakly or less than the wild type.

By UniProt entry, the sequences of proteins in these tests, tags left out. Residues count along the entry.
UniProt Q02223, residues 1-54: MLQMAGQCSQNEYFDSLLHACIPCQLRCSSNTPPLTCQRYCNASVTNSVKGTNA

Columns and labels:
[1] = molecular target: RD103A CAR (靶向BCMA的嵌合抗原受体); assay: flow cytometry on 103A CAR-T cells
[2] = molecular target: RD103A CAR (靶向BCMA的嵌合抗原受体); assay: flow cytometry on Jurkat-103A scFv cells, FITC-BCMA 1:100

binding [1]: binds | binding [2]: binds
Substance: FITC-BCMA抗原 (ACRObiosystems, BCA-HF254) (from UniProt Q02223 1-54) (receptor)
